Experimental data as given in patent publication US10487308B2, “Culture medium composition” (NISSAN CHEMICAL CORPORATION, priority 2014, dated 2019).

Tested on: HeLa cell sphere
Assay: Cell suspension test of HeLa cell spheres
Assay type: cell-based, human
Conditions: 37° C., 1 hr

## collagen
0.01% (w/v) in DMEM/F-12
  HeLa cell suspension/sedimentation: sedimentation
0.05% (w/v) in DMEM/F-12
  HeLa cell suspension/sedimentation: suspension
0.1% (w/v) in DMEM/F-12
  HeLa cell suspension/sedimentation: suspension
0.2% (w/v) in DMEM/F-12
  HeLa cell suspension/sedimentation: suspension
